The record followed here is the supplement of paper PMC3334620.

The full ranking holds about 33,000 sequences; the median of “E-score (-0.5 to 0.5)” is about -0.016, and the highest 2% start at about 0.3. The list shows a part of the results.

This experiment concerns the target T1, Yer184c (UniProt P39961).
T1 sequence: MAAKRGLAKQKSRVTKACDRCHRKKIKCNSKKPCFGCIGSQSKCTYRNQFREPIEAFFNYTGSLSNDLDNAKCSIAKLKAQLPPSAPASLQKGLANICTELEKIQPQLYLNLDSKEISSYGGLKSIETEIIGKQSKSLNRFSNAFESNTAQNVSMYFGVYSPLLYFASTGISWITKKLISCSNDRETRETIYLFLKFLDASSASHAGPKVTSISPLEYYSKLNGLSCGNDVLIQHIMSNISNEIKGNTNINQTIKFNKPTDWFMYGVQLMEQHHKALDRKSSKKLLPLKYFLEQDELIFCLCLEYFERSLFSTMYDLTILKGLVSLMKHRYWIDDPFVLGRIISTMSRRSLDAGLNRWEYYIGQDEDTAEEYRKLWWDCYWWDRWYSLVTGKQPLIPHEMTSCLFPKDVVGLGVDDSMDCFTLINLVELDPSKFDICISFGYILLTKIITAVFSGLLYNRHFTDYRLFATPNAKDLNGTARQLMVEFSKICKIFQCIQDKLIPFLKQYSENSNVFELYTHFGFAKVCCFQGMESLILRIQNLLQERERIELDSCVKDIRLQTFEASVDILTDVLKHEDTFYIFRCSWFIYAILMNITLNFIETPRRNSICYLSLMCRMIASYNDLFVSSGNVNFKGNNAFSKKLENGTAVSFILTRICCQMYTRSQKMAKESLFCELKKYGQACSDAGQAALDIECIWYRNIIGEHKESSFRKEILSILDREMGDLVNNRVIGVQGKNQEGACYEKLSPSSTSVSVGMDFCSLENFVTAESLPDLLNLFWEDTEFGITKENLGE
Description: PBM E-score (8-mer binding enrichment) (E-score (-0.5 to 0.5)); higher = stronger / more preferred TF binding. The note with it: protein concentration: 100 nM; construct: GST-full length. The essentials:
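Masliner-normalised scans of fluorescent anti-GST signal were the basis for scoring. That signal came from GST-tagged yeast transcription factors applied at about 100-200 nM to double-stranded universal all-10-mer Agilent arrays on fresh or once-stripped slides. Each ungapped eight-base word, pooled with its reverse complement, received an E-score from the Universal PBM Analysis Suite.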
Turning to CTGCACGC, the “PBM E-score” value is -0.179.

Turning to AAGCCTAG, the “PBM E-score” value was 0.0121.

AAAGCTCA: the “PBM E-score” value was -0.0916.

Turning to AGACAATC, the “PBM E-score” value is 0.0526.

Regarding CTTAACAA, the “PBM E-score” value turned out to be 0.139.

Turning to GAAACCCA, the “PBM E-score” value was found to be 0.178.

On to AGTCCCGG, for which the “PBM E-score” value worked out at 0.0687.

Turning to ATAGCCTC, the “PBM E-score” value was -0.105.

Regarding AAACTTGG, the “PBM E-score” value was -0.072.

TGTCAACA: the “PBM E-score” value was -0.0408.

Turning to GCCGGATA, the “PBM E-score” value turned out to be 0.354.

As to GGGTTTCA, the “PBM E-score” value came out at 0.0583.

For the sequence GGTCCCGA, the “PBM E-score” value was 0.0929.

Regarding CGCGCTAC, the “PBM E-score” value came to 0.0439.

As for ATGTAACC, the “PBM E-score” value was -0.0731.

Turning to CAGACAAC, the “PBM E-score” value was determined as 0.053.

As to ACACGGAG, the “PBM E-score” value was found to be 0.179.

For CTCTTTCC, the “PBM E-score” value is -0.089.

Consider CCTACTGA, for which the “PBM E-score” value is -0.151.

Consider ACTCGGTG, for which the “PBM E-score” value is -0.008.

For the sequence TAAGCCCA, the “PBM E-score” value is -0.143.

Regarding AACGTCCC, the “PBM E-score” value was -0.181.

On to CGATCGCC, for which the “PBM E-score” value came out at 0.152.

In the case of CCAGCTAC, the “PBM E-score” value was -0.255.

As for GAAGTACA, the “PBM E-score” value stood at 0.0369.

AAAGGAGC: the “PBM E-score” value was -0.0826.

Consider CACGCTAC, for which the “PBM E-score” value was -0.0976.

Take ACTGGTGG: the “PBM E-score” value is -0.244.

GGGTCGGA: the “PBM E-score” value worked out at 0.0158.

As to GAACCTCA, the “PBM E-score” value was found to be 0.113.

In the case of GTGGACAA, the “PBM E-score” value is 0.0594.

Consider CGAGTGTC, for which the “PBM E-score” value amounted to 0.019.

For CTATTACA, the “PBM E-score” value is -0.086.

AAGGGTCC: the “PBM E-score” value is -0.0051.

Regarding CAGCTTTA, the “PBM E-score” value amounted to 0.0988.

On to AGCGCCTA, for which the “PBM E-score” value was -0.0937.

For CGGGTGTC, the “PBM E-score” value is -0.00111.

Take ACTAGCCA: the “PBM E-score” value is -0.0418.

Take AAGACTCC: the “PBM E-score” value was -0.264.

Turning to CAAGTGGC, the “PBM E-score” value is -0.0746.

TCTCAAAA: the “PBM E-score” value was determined as 0.14.

In the case of GCCAAGAA, the “PBM E-score” value is -0.0167.

Take CACCTGAC: the “PBM E-score” value was -0.178.

Turning to ATAAGCTG, the “PBM E-score” value was -0.0629.

Regarding ATTCGGGG, the “PBM E-score” value came out at 0.155.

As for CGCGCTTC, the “PBM E-score” value worked out at 0.00563.

For CGGCTCCC, the “PBM E-score” value came to 0.0852.

As for GGAGTAAA, the “PBM E-score” value was 0.134.

ATCGCGCC: the “PBM E-score” value came to 0.0413.

AACAGCTT: the “PBM E-score” value was -0.0461.

On to GGTTAGGA, for which the “PBM E-score” value was -0.17.

Consider AACCATAT, for which the “PBM E-score” value is -0.107.

As to CGGAGCGA, the “PBM E-score” value was determined as 0.332.

Consider GCACCGTA, for which the “PBM E-score” value is 0.0326.

For AATGATGT, the “PBM E-score” value worked out at 0.177.

With TGAGTCCA, the “PBM E-score” value is 0.0121.

GAAGCCTC: the “PBM E-score” value was -0.124.

For the sequence AACTACAA, the “PBM E-score” value is 0.207.

As to AGTTCCGG, the “PBM E-score” value turned out to be 0.374.

With GCCTTACC, the “PBM E-score” value is -0.284.

As to GGTGCGGA, the “PBM E-score” value came to 0.0232.

Regarding ACTCAGAG, the “PBM E-score” value stood at 0.063.

Turning to TAGACATA, the “PBM E-score” value worked out at 0.144.

As to AGACTCAT, the “PBM E-score” value is -0.0316.

As for CGCACAAA, the “PBM E-score” value was determined as 0.101.

As for ATTCGGAA, the “PBM E-score” value was found to be 0.353.

For the sequence ACGAACCT, the “PBM E-score” value was -0.0757.

On to CTAGTATA, for which the “PBM E-score” value turned out to be 0.162.

For ATCCAGCG, the “PBM E-score” value was 0.187.

AGGGTACT: the “PBM E-score” value is -0.289.

For CAGCGGCG, the “PBM E-score” value amounted to 0.0785.

In the case of CCTATCAA, the “PBM E-score” value is -0.0578.

As to TACTTAAA, the “PBM E-score” value was 0.0478.

As for CGCAGGAA, the “PBM E-score” value is -0.2.

AACGCTGA: the “PBM E-score” value is -0.114.

Turning to TGTAAAAA, the “PBM E-score” value was 0.0838.

As for CAGGATGA, the “PBM E-score” value is -0.169.

In the case of CGCCGCAA, the “PBM E-score” value was found to be 0.266.

Consider CGATTGCC, for which the “PBM E-score” value is -0.0159.

Take AGTGCACG: the “PBM E-score” value was -0.114.

For ATCGCGTC, the “PBM E-score” value came to 0.0538.

As to AGGTTTTA, the “PBM E-score” value is -0.00415.

Turning to CAATATGC, the “PBM E-score” value is -0.126.

As for ACTTGACT, the “PBM E-score” value was -0.153.

As for CGCTCCTA, the “PBM E-score” value was -0.0585.

CCTAGAAA: the “PBM E-score” value worked out at 0.0656.
